# These are yes or no findings as the source states them, for the method shown. Binding seen in cells or lysates may run through a third protein. Some binding calls cover weakened binding; strength is not graded here.
# Protein sequences, listed by entry. Tags and fused reporters are not part of them. Lines headed by an entry give the natural chain unless they say otherwise; changes in a name come on top.
# UniProt Q92783: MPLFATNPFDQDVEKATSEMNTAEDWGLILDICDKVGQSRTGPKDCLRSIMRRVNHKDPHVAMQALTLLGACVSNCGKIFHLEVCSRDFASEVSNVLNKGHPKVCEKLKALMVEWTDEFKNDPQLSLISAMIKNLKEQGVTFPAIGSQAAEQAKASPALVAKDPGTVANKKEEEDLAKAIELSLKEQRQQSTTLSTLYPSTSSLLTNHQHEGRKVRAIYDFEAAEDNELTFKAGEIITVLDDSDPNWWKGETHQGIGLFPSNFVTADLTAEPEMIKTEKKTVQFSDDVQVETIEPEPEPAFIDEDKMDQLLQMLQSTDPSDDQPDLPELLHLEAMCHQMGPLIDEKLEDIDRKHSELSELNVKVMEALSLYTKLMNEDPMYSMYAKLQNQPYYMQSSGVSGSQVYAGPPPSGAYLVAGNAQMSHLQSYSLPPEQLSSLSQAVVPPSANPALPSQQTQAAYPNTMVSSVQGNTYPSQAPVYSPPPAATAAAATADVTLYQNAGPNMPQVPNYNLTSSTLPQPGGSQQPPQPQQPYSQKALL
# UniProt P49407: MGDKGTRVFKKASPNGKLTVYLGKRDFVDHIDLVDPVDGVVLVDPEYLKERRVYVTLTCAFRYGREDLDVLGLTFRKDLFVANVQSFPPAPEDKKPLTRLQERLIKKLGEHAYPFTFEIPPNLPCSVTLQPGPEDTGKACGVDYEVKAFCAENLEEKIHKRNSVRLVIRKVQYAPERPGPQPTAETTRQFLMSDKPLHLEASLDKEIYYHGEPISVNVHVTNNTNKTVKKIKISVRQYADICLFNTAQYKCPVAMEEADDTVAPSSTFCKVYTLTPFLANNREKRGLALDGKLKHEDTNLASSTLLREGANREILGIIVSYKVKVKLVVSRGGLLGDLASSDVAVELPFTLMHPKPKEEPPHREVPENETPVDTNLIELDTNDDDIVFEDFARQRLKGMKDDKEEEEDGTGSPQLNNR
# Experiments:
# Rluc8-STAM1-K136R = Rluc8-STAM1-K136R (UniProt Q92783); assay: FRET or BRET; HEK293 cells cotransfected with FLAG-CXCR4, Rluc8-STAM1 (WT or K136R; donor) and βarr1-GFP10 (acceptor); stimulated with increasing concentrations of CXCL12; DeepBlueC substrate; net BRET
# Rluc8-STAM1 (wild type) = Rluc8-STAM1 (wild type) (UniProt Q92783); assay: as above
substance,measurement,setting,value
βarr1-GFP10 (from UniProt P49407 1-418),binding,Rluc8-STAM1-K136R,binds
same,binding,Rluc8-STAM1 (wild type),binds

# From article PMC10755771
